No constants are given. Whether binding was seen depends on the method and setting. Some results given as binding are weak or reduced against the parent protein; the word gives no strength. Tags and fused reporters may be left off the sequences shown.
Target: T1, LDCAM (clone isolated from the WI-26 cell line expression library, expressed on transfected CV1/EBNA cells) (human) (UniProt Q9BY67)
T1 sequence: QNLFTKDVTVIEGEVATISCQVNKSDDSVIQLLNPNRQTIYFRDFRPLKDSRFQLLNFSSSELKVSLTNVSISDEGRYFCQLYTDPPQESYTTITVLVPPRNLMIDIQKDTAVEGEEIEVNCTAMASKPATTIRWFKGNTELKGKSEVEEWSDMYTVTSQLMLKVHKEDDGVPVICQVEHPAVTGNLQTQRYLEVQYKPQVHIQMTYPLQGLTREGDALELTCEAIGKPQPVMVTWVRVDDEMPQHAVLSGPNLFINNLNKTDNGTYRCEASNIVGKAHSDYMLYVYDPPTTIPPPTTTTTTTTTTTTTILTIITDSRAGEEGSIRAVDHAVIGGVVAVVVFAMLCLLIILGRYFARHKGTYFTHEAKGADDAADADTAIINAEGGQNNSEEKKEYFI
Assay: expression cloning: CV1/EBNA cells transfected with the WI-26 cDNA clone, incubated with 1 ug/mL B7L-1/Fc, detected with 125I-labeled anti-human F(ab)2 and autoradiography

B1: human B7L-1/Fc fusion protein (Fc fusion, not shown: a dimerising Fc or GST)
chain: PGGANLSQDGYWQEQDLELGTLAPLDEAISSTVWSSPDMLASQDSQPWTSDETVVAGGTVVLKCQVKDHEDSSLQWSNPAQQTLYFGEKRALRDNRIQLVTSTPHELSISISNVALADEGEYTCSIFTMPVRTAKSLVTVLGIPQKPIITGYKSSLREKDTATLNCQSSGSKPAARLTWRKGDQELHGEPTRIQEDPNGKTFTVSSSVTFQVTREDDGASIVCSVNHESLKGADRSTSQRIEVLYTPTAMIRPDPPHPREGQKLLLHCEGRGNPVPQQYLWEKEGSVPPLKMTQESALIFPFLNKSDSGTYGCTATSNMGSYKAYYTLNVNDPSPVPSSSSTYH
B1 was tested, and the binding was “binds”.

From patent US20020164686A1
